In PubChem BioAssay AID2685 (National Center for Advancing Translational Sciences (NCATS), 2010):
Some of the results follow. Shown are side measurements of this screen, not its main read-out; they come without a call. The list favours compounds with an active or inconclusive main result. Potencies come from curve fits of mixed quality, noted in brackets.

Test: qHTS Assay for Lipid Storage Modulators in Drosophila S3 Cells;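 as to cell number change: cells counted by Cell Tracker Red CMTPX staining in the red channel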
Conditions: BODIPY lipid droplet fluorescence, 18-24 h; for cell number change: measured here: cell count max response, cells fed with added oleic acid
Summary of the method: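 Drosophila S3 cells got compounds at several concentrations plus oleic acid (400 uM solution). Laser-scanning cytometry with 488 nm excitation read lipid droplets at 500-530 nm and cells at 575-640 nm. Percent activity was relative to 20 uM Triacsin C.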

[1] = measured here: lipid fluorescence (Fed channel) AC50, cells fed with added oleic acid
[2] = measured here: cell number channel AC50, cells fed with added oleic acid

SMILES | cell number change [%] | AC50 [1] | AC50 [2]
C=C(C)C(=O)Nc1cccc(C2=NOC3(C2)C[C@H](C(N)=O)N(C(=O)c2ccccc2)C3)c1 (stereo partly drawn) | 26.4 | 20.6 µM [rising, partial curve, poor fit] | –
CCOc1ccccc1NC(=O)CCc1nnc2ccc(N3CCC(C)CC3)nn12 | 5.76 | – | –
CC(=O)c1cc(C#N)c(SCC(=O)OC(C)(C)C)nc1C | -16.4 | 29.1 µM [falling, single point] | –
C[C@@H]1NC(=O)[C@H](CCC(N)=O)NC(=O)c2cc([N+](=O)[O-])cc(I)c2NCCC[C@@H](C(N)=O)NC1=O | 11 | 0.92 µM [rising, full curve, poor fit] | –
CCOC(=O)c1[nH]c(C)c(C(=O)N2CCN(C(=O)OCC)CC2)c1CC | – | – | 3.66 µM [falling, partial curve]
COc1ccc(NC(=O)C(=O)NNC(=O)COc2ccc(Cl)cc2)c(OC)c1 | 0.634 | 31.6 µM [rising, single point] | –
COc1ccc(OCC(=O)NNC(=O)c2cccnc2)cc1 | 18.4 | 20.6 µM [rising, single point] | –
COc1cccc(Nc2cc(N3CCOCC3)c3nonc3c2[N+](=O)[O-])c1 | -22.6 | 0.092 µM [falling, full curve, poor fit] | 0.092 µM [falling, full curve, poor fit]
CC(=O)Nc1nc2c(ncn2COCCOC(C)=O)c(=O)[nH]1 | – | – | 4.11 µM [falling, single point]
O=C(CCNC(=O)N1CCn2c1nc1ccccc12)NCc1ccccc1 | 32 | – | 29.1 µM [rising, single point]
CCC1=NC(c2ccccc2OC)N(O)C1(C)C (stereo not drawn) | 3.18 | – | –
Cc1ccc(C(=O)NCCCc2ccccc2)s1 | 6.51 | 32.6 µM [rising, single point] | –
Cc1ccc(-c2cc(N)n3nc(-c4ccc(C)cc4)cc3n2)cc1 | -33.9 | 29.1 µM [falling, partial curve, poor fit] | 29.1 µM [falling, single point]
Cc1ccc2c(c1)C1CN(C)CCC1N2C(=O)c1cccc(S(=O)(=O)N2CC(C)CC(C)C2)c1 (stereo not drawn) | 30.9 | 0.58 µM [rising, single point] | –
O=C(OCC(=O)N1CCCC1)c1ccc(Cl)c([N+](=O)[O-])c1 | -19.2 | – | –
CCCOc1ccc(C(CC(=O)O)NC(=O)c2cccs2)cc1 (stereo not drawn) | 0.724 | 0.00731 µM [falling, full curve, poor fit] | 0.231 µM [falling, full curve]
Cc1cc(Cl)ccc1NC(=S)NCc1ccc(Cl)cc1 | -46.7 | – | –
COC(=O)C1C(=O)C(C(=O)/C=C/c2ccccc2)C(=O)CC1(C)C (stereo not drawn) | 2.57 | – | –
CCOc1ccc(-c2csc(NC(=O)c3cccc(N4C(=O)CCC4=O)c3)n2)cc1 | -9.51 | – | –
O=C(NCc1cccs1)C1CCC(CNS(=O)(=O)c2cccc3nsnc23)CC1 (stereo not drawn) | 12.1 | 0.00517 µM [falling, full curve, poor fit] | –

SMILES | cell number change [%] | AC50 [1] | AC50 [2]
COc1cccc(C(=O)NCC(=O)NCc2cc(=O)n(C)c(=O)n2C)c1 | -5.5 | 10.3 µM [rising, partial curve] | –
CCn1c(COc2ccc(=O)n(-c3ccccc3)n2)nnc1SCC(=O)OC | 32.5 | 0.058 µM [rising, full curve, poor fit] | 0.231 µM [rising, full curve]
CCc1ccc(OCC(=O)OCC(=O)c2c(N)n(C)c(=O)n(C)c2=O)cc1 | -8.4 | 1.03 µM [falling, full curve] | –
O=C(O)CCCNC(=O)c1nn(Cc2ccccc2)c(=O)c2ccccc12 | 18.8 | 0.164 µM [falling, partial curve, poor fit] | –
O=P(Cc1ccccc1)(c1ccccc1)c1ccccc1 | 28.9 | 29.1 µM [rising, single point] | –
O=C(Cc1ccc(-c2ccccc2)cc1)N1CCOCC1 | 10.8 | 29.1 µM [falling, single point] | –
Cc1ccc(S(=O)(=O)CCSc2nccn2C)cc1 | -46.5 | 16.4 µM [falling, single point] | 13 µM [falling, partial curve, poor fit]
O=C1NC(=O)C2C1C(c1ccc([N+](=O)[O-])cc1)=NN2Cc1ccccc1 (stereo not drawn) | -6.89 | – | –
COc1cccc(C(=O)NC2CCCc3c2cnn3-c2ccc(C)c(C)c2)c1OC (stereo not drawn) | -32.6 | – | 10.3 µM [falling, partial curve, poor fit]
Cc1ccc(-c2nnc(CSc3nc(C)nc4sc(C)c(C)c34)o2)cc1 | 12.5 | 6.51 µM [rising, single point] | 0.0103 µM [rising, full curve, poor fit]
Cc1cc(C)n(C(C)CNS(=O)(=O)c2ccccc2)n1 (stereo not drawn) | 16 | 29.1 µM [rising, single point] | –
CCN(Cc1ccccc1)Cc1cc(OC)cc(OC)c1 | -24.8 | 0.0058 µM [falling, full curve, poor fit] | –
CC(C)=CCC/C(C)=C/C=N/NC(=O)c1cccc([N+](=O)[O-])c1 | -35.8 | 18.4 µM [falling, single point] | 16.4 µM [falling, single point]
Cc1cccc(NC(=O)CCc2ccc(S(=O)(=O)NC3CCCCC3)cc2)c1 | 39.2 | – | 9.2 µM [rising, partial curve]
COc1ccccc1CN(C(=O)c1cnccn1)C(C(=O)NC1CCCCC1)c1cc(OC)c(OC)c(OC)c1 (stereo not drawn) | 17.9 | 0.0731 µM [rising, partial curve, poor fit] | –
CCCSc1ccc([C@@H]2[C@H]3C(=O)N(CC)C(=O)[C@H]3[C@]3(C(=O)OC)CCCCN23)cc1OC | 10.4 | 16.4 µM [falling, partial curve, poor fit] | 6.51 µM [falling, single point]
CCc1ccc(NC(=O)C2CCN(S(=O)(=O)c3c(C)noc3/C=C/N(C)C)CC2)cc1 | 9.91 | 18.4 µM [rising, partial curve] | 4.11 µM [rising, partial curve]
COCC(=O)N1CCC(Oc2ccc(C(=O)NC3Cc4ccccc4C3)cc2)CC1 | 25.4 | 3.26 µM [rising, full curve] | –
O=C(c1ccco1)N1CCN(c2nc3ccccc3n3nnnc23)CC1 | – | 1.46 µM [rising, full curve] | 0.82 µM [rising, partial curve]
Cc1ccc2c(c1)nnn2C1CCN(S(=O)(=O)c2ccc(C(=O)N(C)C3CCCCC3)cc2)CC1 | 63.4 | 1.64 µM [rising, full curve] | 5.17 µM [rising, partial curve]

Whole records as entered above. Values in the order: cell number change [%]	AC50 [1]	AC50 [2]
O=C(O)CCCNC(=O)c1nn(Cc2ccccc2)c(=O)c2ccccc12 is entered as 18.8	0.164 µM [falling, partial curve, poor fit]	–
CCN(Cc1ccccc1)Cc1cc(OC)cc(OC)c1 is entered as -24.8	0.0058 µM [falling, full curve, poor fit]	–
O=P(Cc1ccccc1)(c1ccccc1)c1ccccc1 is entered as 28.9	29.1 µM [rising, single point]	–

An excerpt of these results, as labelled records:
O=C(CCNC(=O)N1CCn2c1nc1ccccc12)NCc1ccccc1
  cell number change [%]: 32
  AC50 [2]: 29.1 µM [rising, single point]
Cc1cccc(NC(=O)CCc2ccc(S(=O)(=O)NC3CCCCC3)cc2)c1
  cell number change [%]: 39.2
  AC50 [2]: 9.2 µM [rising, partial curve]

Carrying on.

SMILES | cell number change [%] | AC50 [1] | AC50 [2]
O=C(CSc1ccccn1)Nc1ccc(Cl)c([N+](=O)[O-])c1 | -21.8 | – | –
Cc1ccc(CNC(=O)c2ccc(CS(=O)Cc3ccccc3Cl)o2)cc1 (stereo not drawn) | 27 | 3.66 µM [rising, single point] | –
COc1cc(Cl)c(C)cc1NC(=O)COC(=O)c1cc[n+]([O-])cc1 | 32.7 | – | –
O=C(c1cccc(OC2CCN(C3CCCC3)CC2)c1)N1CCCCCCC1 | -6.01 | 0.0058 µM [falling, full curve, poor fit] | –
N#Cc1c(NC(=O)CSc2nc(N)cc(=O)[nH]2)sc2c1CCCC2 | – | 7.31 µM [rising, partial curve, poor fit] | –
C=CCn1c(SCC(=O)NC2CCCC2)nc2c([nH]c3ccccc32)c1=O | – | 6.51 µM [rising, single point] | –
COCCOC(=O)c1c(NC(=O)CN2CCOCC2)sc(C(N)=O)c1C | 8.62 | 2.91 µM [rising, single point] | –
CC(C)(C)c1ccc(CNC(=O)C2CCCN2C(=O)Nc2ccccc2)cc1 (stereo not drawn) | – | – | 6.51 µM [rising, single point]
CSc1ncccc1C(=O)N1CCN(S(=O)(=O)c2ccccc2)CC1 | -16.2 | – | –
Fc1ccccc1NC(=S)Nc1cccnc1 | -2.77 | – | 0.326 µM [falling, partial curve, poor fit]
COc1cccc(/C=N/n2c(=S)n(C)c3ccccc32)c1OC | -6.11 | 2.91 µM [rising, partial curve] | 2.06 µM [rising, partial curve]
COc1ccc(C(=O)N2CCN(CCNC(=O)C(=O)Nc3ccc(F)cc3)CC2)cc1 | -1.32 | – | –
CN1OC(c2ccccc2)=C(CO)C1c1ccccc1 (stereo not drawn) | 40.4 | 29.1 µM [rising, single point] | 29.1 µM [rising, single point]
COC(=O)CSc1nc(C)cc(C(F)(F)F)c1C#N | – | 6.51 µM [rising, single point] | –
O=C(O)c1c2c(nc3ccccc13)/C(=C/c1ccc(OC(F)F)cc1)CCC2 | 6.3 | 6.51 µM [falling, single point] | –
COc1ccc(C(=O)COC(=O)Cc2c[nH]c3ccccc23)c(OC)c1 | 60.1 | 6.51 µM [rising, partial curve] | 8.2 µM [rising, partial curve, poor fit]
CCC(=O)c1cn(CC(=O)Nc2ccccc2F)c2ccccc12 | -14.1 | – | –
CN(Cc1ccn[nH]1)C(=O)C1CCC(=O)N(Cc2cccc(C(F)(F)F)c2)C1 (stereo not drawn) | -33.5 | – | 29.1 µM [falling, single point]
Cc1cccc(-n2ncc3c(N4CC(C)CC(C)C4)ncnc32)c1 (stereo not drawn) | -11 | 0.13 µM [rising, full curve, poor fit] | –
